According to US6228382A, “Microbiocidal mixtures” (ETC C.V., priority 1996, dated 2001):
At least one compound was matched to its structure with a doubt left.

Assays:
[1] = tested on: Aspergillus niger and Penicilium funiculosum; test: Long-term protection of a house paint against colonization by fungi; type: cell-based
[2] = Determination of the relative leaching rate from house paint (watering with tap water, HPLC of methanol extracts); type: physicochemical
From the text: First, 128 parts by weight (PW) of water were initially charged. 11 PW of a 10% strength by weight solution of Calgon N (sodium triphosphate) were subsequently stirred into the water. Thereafter, 2 PW of Tylose MHB 6000 (from Hoechst AG), 3 PW of Additol XW 330 (from Hoechst AG), 4 PW of Agitan 260 (from Munzing-Chemie, Heilbronn), 226 PW of titanium dioxide (for example from Kronos 2065), 375 PW of MOWILITH® DM 771 (about 50%) (from. HOECHST), 84 PW of Omyacarb 5 (from Omya), 84 PW of Micro Mica W1, 38 PW of Micro Talc AT 1 and 20 PW of China Clay D were added and homogenized. 11 PW of white spirit, 8 PW of butyl diglycol acetate and 4 PW of MERGAL® K 9 N (Riedel de Haen) were stirred into the resulting mixture. The pH of the resulting house paint was 8.8.
The preservatives listed in Table 2 were homogeneously dispersed into the resulting house paint.
The resulting paint sample was in each case drawn out to a film of approximately 150 g/m^2 on paper, using a knife. The paint sample prepared in this manner was subsequently dried at a temperature of 30° C. for 72 hours.
Test samples having a diameter of 5.5 cm were punched out from the paint sample. To simulate leaching by rainwater, these paint-coated test samples were watered with tap water (46.7 1/day/m^2 of paint). Test samples were taken in each case after 24 hours and air-dried for 72 hours.
To determine the microbicide concentration, in each case one specimen was extracted in methanol. The methanol extracts were analysed by HPLC. […]
column: RP-phenyl (Hypersil 5 μ) mobile phase: gradient water/acetonitrile
UV-Detector: 220 nm and 200 nm
Since in each analysis, the substances listed in Table 3 were measured as the area under the HPLC signal, it is possible to relate the leaching rates directly to the known active compounds OITZ and Mctt.

SMILES: CCCCCCCCn1sccc1=O [OITZ, 2-n-octylisothiazolin-3-one, reference compound]
- protection against colonization by fungi (in words) ([1]; after watering / exposure to the weather): this protection is lost completely
- protection against colonization by fungi (in words) ([1]; no stress caused by the weather (no watering)): protected well against colonization by fungi
- HPLC area ([2]; 0 h watering): 2,170.8 arbitrary units
- HPLC relative area ([2]; 0 h watering): 1
- residual concentration, relative to the residual concentration of Mctt ([2]; 0 h watering): 1.000
- HPLC area ([2]; 24 h watering): 555.1 arbitrary units
- HPLC relative area ([2]; 24 h watering): 0.25
- residual concentration, relative to the residual concentration of Mctt ([2]; 24 h watering): 0.310
- HPLC area ([2]; 48 h watering): 273.0 arbitrary units
- HPLC relative area ([2]; 48 h watering): 0.126
- residual concentration, relative to the residual concentration of Mctt ([2]; 48 h watering): 0.150
- HPLC area ([2]; 72 h watering): 64.0 arbitrary units
- HPLC relative area ([2]; 72 h watering): 0.029
- residual concentration, relative to the residual concentration of Mctt ([2]; 72 h watering): 0.042
- HPLC area ([2]; 96 h watering): 8.1 arbitrary units
- HPLC relative area ([2]; 96 h watering): 0.004
- residual concentration, relative to the residual concentration of Mctt ([2]; 96 h watering): 0.007
- suitability of fungicide/algicide ratio for comprehensive preservation of the film ([2]; after stress by leaching, 96 h watering): no longer suitable for a comprehensive preservation of the film
- residual concentration, of the residual Mctt concentration ([2]; after watering for 96 hours): 0.7%
